Measured values taken from PubChem BioAssay AID1487 (National Center for Advancing Translational Sciences (NCATS), 2009).
Values joined by “and” are separate entries in the source; they are usually repeats but may differ in a detail not shown here. Identical values can stand only once. The list shows a part of the results. Shown are side measurements of this screen, not its main read-out; they come without a call. Compounds called inactive in the main read-out are mostly missing here. The note in brackets gives the kind of curve behind each potency; many fits are weak.

Assay: qHTS Assay for Modulators of Lamin A Splicing
Conditions: HeLa LMNA splicing GFP/RFP minigene ratio, 48 h
Procedure, shortened: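 S3 HeLa cells stably expressing lamin A-EGFP splicing minigene plus DsRed2, 600 cells/well, 48 h compound exposure at 37C. Laser-scanning cytometry; analysed as GFP (500-530 nm)/RFP (575-640 nm) total intensity ratio; 0.5% DMSO vehicle.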

[1] = measured here: RFP viability control channel
[2] = measured here: GFP splicing reporter channel

In the case of `CCc1cc[n+](-c2nc3ccccc3nc2[N-]S(=O)(=O)c2ccc(Br)s2)cc1`, the AC50 [1] is reported as 11.2 µM [rising, single point].

For `O=C(NNS(=O)(=O)c1ccc2ccccc2c1)c1cccnc1`, the AC50 [2] was 11.2 µM [rising, partial curve, poor fit] and the AC50 [1] was 17.8 µM [rising, single point].

With `O=C(c1c[nH]c(C(=O)C(Cl)(Cl)Cl)c1)c1ccc(F)cc1Cl` the AC50 [1] was 31.6 µM [falling, single point].

For `CCc1cc(SC#N)cc(C)c1NC(=O)CCl`, the AC50 [1] was 10 µM [falling, partial curve].

In the case of `CC12CCC(C(=O)Nc3c(Cl)cccc3Cl)(C(Br)C1=O)C2(C)C` (stereo unspecified), the AC50 [1] is reported as 35.5 µM [rising, single point].

For `COc1ccc(-c2nc3n(n2)C(c2ccccc2)C(C(=O)Nc2cccnc2)=C(C)N3)cc1` (stereo unspecified), the AC50 [2] was 14.1 µM [falling, single point].

With `CN1CCN(CC(=O)N2c3ccccc3C(=O)Nc3cccnc32)CC1` the AC50 [2] was 39.8 nM [falling, full curve, poor fit] and 3.98 nM [falling, full curve, poor fit] and the AC50 [1] was 126 nM [rising, full curve, poor fit] and 22.4 µM [falling, partial curve] and 17.8 µM [rising, single point].

With `Cc1c(C(=O)NCc2ccc(Cl)cc2)sc2nc3n(c(=O)c12)CCC3` the AC50 [1] was 31.6 µM [rising, single point].

For `COc1ccc(NC(C)C(=O)N/N=C/c2cc(Br)ccc2OC)cc1` (stereo unspecified), the AC50 [1] was 3.16 µM [falling, partial curve, poor fit].

With `CC(C)(C)SCCNC(=O)c1cccc([N+](=O)[O-])c1` the AC50 [2] was 12.6 µM [rising, single point] and the AC50 [1] was 15.8 µM [rising, single point].

For `CCc1cc[n+](-c2nc([O-])sc2C=O)cc1`, the AC50 [1] was 0.141 µM [falling, partial curve, poor fit].

With `CO/C=C\C=C/c1nnn(-c2ccc(Cl)cc2)n1` the AC50 [1] was 0.0891 µM [falling, full curve, poor fit].

For `Cc1nc(NC(=O)CSc2cc(C)c3ccccc3n2)c(Cl)cc1Cl`, the AC50 [1] was 12.6 µM [rising, partial curve, poor fit].

For `N#CC(=C=[N-])C1=C(C#N)C(c2ccccc2F)C([n+]2ccccc2)C(O)(C2CC2)N1` (stereo unspecified), the AC50 [2] was 5.62 µM [falling, single point] and the AC50 [1] was 4.47 µM [falling, partial curve].

With `COc1ccc(-c2csc(NC(=S)NC(=O)/C=C/c3ccco3)n2)cc1Br` the AC50 [1] was 25.1 µM [falling, single point].

With `Cc1cc(C)nc(NC(=O)c2c(-c3ccccc3Cl)noc2C)c1` the AC50 [2] was 12.6 µM [rising, partial curve] and the AC50 [1] was 31.6 µM [rising, single point].

For `COC(=O)c1c(NC(=O)c2ccccc2)sc(C(N)=O)c1C`, the AC50 [2] was 3.98 µM [rising, single point].

For `CS(=O)(=O)Nc1cccc(C2=NN(S(C)(=O)=O)C(c3ccc4c(c3)OCO4)C2)c1` (stereo unspecified), the AC50 [2] was 12.6 µM [rising, single point] and the AC50 [1] was 17.8 µM [rising, single point].

In the case of `COC(=O)c1ccc2c(=O)n(CCCCCC(=O)N3CCN(c4cccc(C)c4C)CC3)c(=O)[nH]c2c1`, the AC50 [2] is reported as 0.00355 µM [falling, full curve, poor fit] and the AC50 [1] is reported as 0.00316 µM [falling, full curve, poor fit].

For `CC(=O)c1cccc(NC(=O)C2C(c3ccccc3)C2(Cl)Cl)c1` (stereo unspecified), the AC50 [1] was 2.24 µM [rising, full curve, poor fit].

With `S=C(NCc1ccco1)NCC1CCCO1` (stereo unspecified) the AC50 [1] was 17.8 µM [falling, single point].

With `CCCC(c1nnnn1C1CCCC1)N1CCN(c2ccccc2F)CC1` (stereo unspecified) the AC50 [1] was 0.112 µM [falling, full curve, poor fit].

For `CCOC(=O)c1sc(NC(=O)c2ccc(S(=O)(=O)N(C)C)cc2)cc1C`, the AC50 [1] was 25.1 µM [rising, single point].

In the case of `O=C(Cn1cc(C(=O)c2cccs2)c2ccccc21)NC1CCCCC1`, the AC50 [1] is reported as 20 µM [rising, single point].

With `COc1ccc(CCNc2nc(-c3ccc(NC(C)=O)cc3)cs2)cc1OC` the AC50 [2] was 35.5 µM [rising, single point] and the AC50 [1] was 35.5 µM [rising, single point].

With `NC(N)=NS(=O)(=O)c1ccc(NC(=S)NC(=O)/C=C/c2cccs2)cc1` the AC50 [1] was 6.31 µM [falling, partial curve, poor fit].

In the case of `COc1cc2c(cc1NC(=O)COC(=O)[C@@H](NS(=O)(=O)c1ccccc1)C(C)C)oc1ccccc12`, the AC50 [2] is reported as 20 µM [rising, partial curve] and the AC50 [1] is reported as 35.5 µM [rising, single point].

In the case of `Cc1ccc(S(=O)(=O)N/N=C/c2c[nH]c3ccccc23)cc1`, the AC50 [2] is reported as 1.12 µM [falling, partial curve, poor fit].

For `CC(C)Oc1ccc(C(=O)N2CCCc3ccccc32)cc1`, the AC50 [2] was 11.2 µM [rising, single point] and the AC50 [1] was 10 µM [rising, single point].

With `CCOC(=O)/C(=C/c1c(C)n(C)c2ccc([N+](=O)[O-])cc12)C(C)=O` the AC50 [2] was 8.91 µM [rising, partial curve] and the AC50 [1] was 11.2 µM [rising, partial curve].

With `O=C(/C=C\c1ccc2c(c1)OCO2)NC1(C(=O)Nc2ccc3c(c2)OCO3)CCCCC1` the AC50 [2] was 35.5 µM [rising, single point].

For `Cc1onc(-c2ccccc2)c1C(=O)Nc1sc2c(c1C#N)CCC2`, the AC50 [1] was 35.5 µM [rising, single point].

In the case of `COc1ccccc1-c1nnc(SCC(=O)c2ccc(C3CCCCC3)cc2)n1Cc1ccco1`, the AC50 [2] is reported as 35.5 µM [falling, single point].

In the case of `c1ccc2c(c1)COC(CN1CCCCC1)OC2`, the AC50 [2] is reported as 0.00631 µM [falling, full curve] and the AC50 [1] is reported as 0.447 µM [falling, full curve, poor fit].
